Measured values as given in US20170233476A1.
Residue numbers refer to the chain shown, from its start. No constants are given. Whether binding was seen depends on the method and setting. Some entries that bind do so weakly or less than the wild type. For some of these results: Where a sequence is shown, tags or fusion partners need not be part of it.

Amino acid sequences for entries named in this document (tags omitted). Residues count along the entry.
UniProt P16410, residues 36-161: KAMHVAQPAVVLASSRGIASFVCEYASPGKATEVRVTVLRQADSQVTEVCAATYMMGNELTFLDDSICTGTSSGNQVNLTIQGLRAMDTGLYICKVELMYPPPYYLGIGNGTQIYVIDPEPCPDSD

T1: cynomolgus CTLA4/His (cynomolgus) (UniProt G7PL88)
T1 sequence: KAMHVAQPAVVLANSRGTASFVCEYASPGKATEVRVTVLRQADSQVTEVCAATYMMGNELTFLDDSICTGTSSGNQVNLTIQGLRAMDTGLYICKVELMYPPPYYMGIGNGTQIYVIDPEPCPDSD

B1: C2 (antibody, V domains shown)
VH: QVQLVQSGAEVKKPGASVKVSCKASGYTFTTHYIHWVRQAPGQGLEWMAIINPNDGVKVYAQKFKGRLTVASDTSATTVYMDLSGLTSDDTAVYYCGREQHGGHHDYWGQGTLVTVSS
VL: QAGLTQPASVSGSPGQSITISCTGTSSDVGGYNYVSWYQQHPGKAPKLMIYDVTNRPSGVSNRFSGSKSGNTASLTISGLQAEDEADYYCKSYTSSSTPYVFGTGTKVTVL
B2: F6 (antibody, V domains shown)
VH: EVQLVESGGGFVKPGRSLRLSCTASGFTFGDYGMSWFRQAPGKGLEWVGFIRSKAYGGTTDYAASVKGRFTISRDDSKSFAYLQMNSLKTEDTAVYYCTRGHYSASIWGQGTLVTVSS
VL: SYELMQPPSVSVAPGKTARITCGGNNIGSKSVHWYQQRPDQAPVLVIYSDNDRPSGIPERFSGSSSGHTATLTISRVEAGDEADYFCQVWDSNKNEWVFGGGTKLTVL
B3: B6 (antibody, V domains shown)
VH: QVQLVQSGAEVKKPGATVKVSCTASGFPFRNYAMHWVRQAPGQRLEWLGWIDAGNGNTKYSQTFHGRVTITRDTSASTAYMELSSLRSEDTAVYYCARDLLWPYLVTSGGAFDIWGQGTMVTVSS
VL: SYELMQPPSTSGTPGQRVTISCSGSSSNIGSHIVNWYQQFPGAAPQLLIYNDDQRPSGVPDRFSGSKSGASASLAISGLQSEDEAHYYCSAWDDILKGPVFGGGTKLTVL
B4: A1 (antibody, V domains shown)
VH: EVQLVQSGGGLVQPGRSLRLSCRGSNFNFDDLAISWVRQAPGKGLEWLGFVRSKAYGETTDYVASVKGRFTISRDDSKFIAWLQMDSLKTDDTAVYYCTTFNYWGQGTLVTVSS
VL: LPVLTQPPSVSVAPGKTARISCGGNNIASEAVHWYQKKPGQAPVLVIYYDSDRPSGIPERFSGSNSGNTATLRISRVDAGDEADYYCQVWDRTTDQPVFGGGTKLTVL
B5: CT1E1 (antibody, V domains shown)
VH: B4 VH with Q6E
VL: B4 VL with L1Q
B6: G3 (antibody, V domains shown)
VH: QVQLVQSGAEVKKPGASVKVSCKASGYTFTSYYMHWVRQAPGQGLEWMGIINPSGGSTSYAQKFQGRVTMTRDTSTSTVYMELSGLRSEDTAVYYCARYEHDYDSSKATTGYFDYWGQGTLVTVSS
VL: AIQLTQSPDSLAVSLGERATINCKSSQSILYRSNNKNYLAWYQQKPGQPPKLLIYWASTRESGVPDRFSGSGSGTDFTLTISSLQPEDFATYYCQQADRFPITFGQGTRLEIK
B7: A12 (antibody, V domains shown)
VH: QVQLVESGGGLVQPGGSLRLSCAASGFTFSNYAMNWVRQTPGKGLEWVSVNYNDGFGTFNGYYADSVKGRFIISRDNSKNTLYLQMNSLRVDDTAVYYCARDSGVAGPYYFDNWGQGTLVTVSS
VL: AIQLTQSPSTLSASVGDRVTITCRASQSISSWLAWYQQKPGKAPKLLIYKASSLESGVPSRFSGSGSGTEFTLTISSLQPDDFATYYCQQYNSSPLTFGGGTKLEIK
B8: F7 (antibody, V domains shown)
VH: QVQLVQSGAEVKKPGASVKVSCKASGYAFDGHYMHWVRQAPGQRLEWMGWVDPHSGATNYAQNFQGGVTMTRDTSINTVYMELSSLKSDDTAVYYCARDFYDTSAKSGAFDIWGQGTMVTVSS
VL: AIQLTQSPSSVSASVGDRVTITCRASQGISSWLAWYQQKPGKAPKLLIYAASSLQSGVPSRFSGSGSGTDFTLTISSLQPEDFATYYCQQVNSFPWAFGQGTKVEIK
B9: A4 (antibody, V domains shown)
VH: QVQLVESGGGLIQPGGSLRLSCAASGFSVSNNYMNWVRQAPGKGLEWVSVIYRGGSTYYADSVKGRFTISRDNSKNTLYLQMNSLRTEDTAVYYCLREGGTSGDYVNDWGQGTLVTVSS
VL: QSVVTQPPSVSGAPGQRVTISCTGSSSNIGAGYDVHWYQQLPGTAPKLLIYGNKNRPSGVPDRFSGSKSGTSASLAITGLQAEDEADYYCQAYDSSLSVVFGGGTKLTVL
B10: F5 (antibody, V domains shown)
VH: EVQLVQSGTEVKKPGSSVKVSCKASGGSFSNYAISWVRQAPGQGLEWMGRIIPILGIANYAQKFQGRVTITADKSTSTAYMELSSLGSEDTAVYYCARESGSYLDPWGQGTLVTVSS
VL: DIVMTQSPDSLAVSLGERATINCKSSQSVLYSPNNKNYLTWYQQKPGQPPKLLMYWASTRESGVPDRFSASGSGTDFTLTISSLQAEDVAVYYCQQSRSGPYTFGQGTKVEIK
B11: G12 (antibody, V domains shown)
VH: EVQLVESGAEVKKPGASVKVSCKASGYTFTSYGISWVRQAPGQGLEWMGWISAYNGNTNYAQKLQGRVTMTTDTSTSTAYMELRSLRSDDTAVYYCARGPGILTGYYFDYWGQGTLVTVSS
VL: EIVMTQSPSSLSASVGDRVTITCRASQGINYHLAWYQQKPGKAPKLLIYAASALQSGVPSRFSGTGSGTEFTLTISSLQPEDFATYYCQQFNTYPLTFGGGTKLEIK
B12: A2 (antibody, V domains shown)
VH: QMQLVQSGAEVKMPGSSVRISCKASGGSFTTHFINWVRQAPGQGLEWMGWMNPNTGNTGYAERFQGRVTLTRDTSISTAYLELSSLRSDDTAVYYCARNPAESGRFDPWGQGTLVTVSS
VL: QSALTQPPSASGSPGRSVTISCTGTSNNVGGYNYVSWYQQHPGKAPKLMIYEVTKRPSGVPDRFSGSKSGNTASLTVSGLQAEDEADYYCGTWDGSLNAYVFGTGTKVTVL
B13: G1 (antibody, V domains shown)
VH: QVQLVQSGAEVKKPGASVKVSCKTSGNTFTNYYMHWVRQAPGQGLEWMGIMNPSGGSTSYAQKFQGRVTMTRDKSTSTVYMELSSLTSEDTAVYYCARDLFPHIYGNYYGMDIWGQGTTVTVSS
VL: QSVVTQPPSVSAAPGQNVTISCSGSSSNIGNNYVSWYQQLPGTAPKLLIYDNNRRASGIPDRFSGSKSGTSATLGITGLQTGDEADYYCGTWDRSLTTDWVFGGGTKLTVL
B14: E8 (antibody, V domains shown)
VH: QVQLVQSGAEVKKPGASVKVSCEASGYTFTNYYIHWLRQAPGQGLEWMGIINPSGGSTTYAQKFQGRITMTRDTSTNTLYMELSSLRSEDTAIYYCARRDCRGPSCYFAYWGQGTTVTVSS
VL: DIVMTQSPSSLSASVGDRVTITCRASQSISSYLNWYQQKPGKAPKLLIYAASSLQSGVPPRFSGSGSGTEFTLTISSLQPEDFATYYCQQANSFPPTFGQGTKVDIK
B15: G5 (antibody, V domains shown)
VH: QVQLQQSGPGLVKPSQTLSLTCAISGDSVSSNSAAWNWIRQSPSRGLEWLGRTYYRSKWYNDYAVSVKSRITINPDTSKNQFSLQLNSVTPEDTAVYYCARDRWELPFDYWGQGTTVTVSS
VL: QSVVTQPPSVSAASGQKVIISCSGSNSNIVNNYVSWYQQLPGAAPKVLIYANNKRPSGIPDRFSGSKSGTSAFLAITGLQTGDEADYYCGTWDGSLDVDVFGGGTKLTVL
B16: F1 (antibody, V domains shown)
VH: EVQLVQSGAEVKKPGASVKVSCKASGYTFTSYGISWVRQAPGQGLEWMGWISAYNGNTNYAQKLQGRVTMTTDTSTSTAYMELRSLRSDDTAVYYCARVGYGGYFDYWGQGTLVTVSS
VL: SYELMQPPSVSKGLRQTATLTCTGNSNNVGNQGADWLQQHQGHPPKLLSYRNNDRPSGISERFSASRSGSTASLTITGLQPEDEADYYCLAWDSSLSAWVFGGGTKVTVL
B17: G2 (antibody, V domains shown)
VH: QVQLVESGGGLIQPGGSLRLSCAASGFTVSSAYMSWVRQAPGKGLEWVSVIYRGGTTYYADSVKGRFTISRDNSKNTLYLQMNSLRAEDTAVYYCRGEGGNSGDYFDYWGQGTTVTVSS
VL: NFMLTQPASVSGSPGQSITISCTGTSSDVGGYNFVSWYQQHPGKAPKLMIYDVSKRPSGVSNRFSGSKSGNTASLTISGLQAEDEADYYCSSYTSTNTLDVLFGGGTKLTVL
B18: F3 (antibody, V domains shown)
VH: QMQLVQSGAEVKKPGASVTVSCKASGYTFTNSYIHWVRQAPGQGLEWVGRLIPSSGYTIFSQKLQGRVSMTRDTSMSTHYLTLSHLRPEDTAVYYCATDGGNYNLDFWGQGTLVTVSS
VL: QPVLTQPPSVSGSPGQSVTISCTGTSSDVGGYNYVSWYQQHPGKAPKLMIYDVSSRPSGVSNRFSGSKSDNTASLTISGLQAEDEADYYCSSYTSSSPYVFGTGTKVTVL

These binders were tested against human CTLA4 (human) (UniProt P16410) (assay: antibody selection, method not described).

binding | Binder
binds | B1
binds | B2
binds | B3
binds | B4
binds | B5
binds | B6
binds | B7
binds | B8
binds | B9
binds | B10
binds | B11
binds | B12
binds | B13
binds | B14
binds | B15
binds | B16
binds | B17
binds | B18

What follows are binders tested against T1, cynomolgus CTLA4/His (cynomolgus) (assay: ELISA, CTLA4/His captured on Ni-NTA plate, antibody at ~1 ug/mL, anti-human Fc-HRP detection).

binding | Binder
binds | B5
